In PubChem BioAssay AID504444 (National Center for Advancing Translational Sciences (NCATS), 2011):
About 7,500 (2.1%) of roughly 360,000 compounds were called active. The shares of active, inactive and inconclusive entries below differ from those in the screen. Calls follow the shape of the dose curve; as a rule, active = well fitted inhibition curve with a large enough effect; inconclusive = small, poorly fitted or top-dose-only effect, or effect the other way; inactive = flat fitted curve, though single readings scatter. Potencies beside an inconclusive call are fits to weak or partial responses and may not hold up.
% is scaled to controls: 0 for no effect and ±100 for the full control effect; potency is read from the fitted curve at half-maximal effect.

Experiment: Nrf2 qHTS screen for inhibitors; also: nearly all actives have a fitted effect of over 60% in size
Conditions: A549 ARE-Fluc reporter, luciferase luminescence, 18-24 h; activity change, negative = inhibition: at 46 µM (top of the series)
Summary of the method: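 A549 ARE_Fluc cells (5000/well, 5% FBS OPTI-MEM) pre-incubated 2 h, then treated with compounds 18-24 h at 37C/5% CO2 in concentration-response. CellTiter-Fluor viability read first; BugLite luciferase luminescence after 15 min at room temperature gives Nrf2 activity.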
For `Cc1c2cnn(CC(=O)Nc3c(F)c(F)cc(F)c3F)c(=O)c2c(C)n1Cc1ccccc1F`, the “activity change, negative = inhibition” value was inactive: 18.2%.
For `Cc1cc(C)n(-c2nc3ccccc3nc2Nc2cccc(C(F)(F)F)c2)n1`, the “activity change, negative = inhibition” value was inactive: 26.6%.
With `COc1ccc(C2C(C(=O)Nc3ccccc3)=C(C)Nc3nc(-c4ccccc4)nn32)cc1OC` (configuration not stated) the Potency was inconclusive: 14.6 µM [falling, partial curve].
With `Brc1ccc(C[n+]2ccccc2)cc1` the Potency was active: 2.59 µM.
In the case of `O=C(c1ccc(COc2ccccc2Cl)o1)N1CCN(Cc2ccc3c(c2)OCO3)CC1`, the “activity change, negative = inhibition” value is reported as inactive: -14%.
With `CCN(CCCNC(=O)CNC(=O)c1nn(-c2ccc(OC)cc2)c(=O)c2ccccc12)c1cccc(C)c1` the Potency was inconclusive: 18.4 µM [falling, partial curve].
For `COc1ccc(-c2sc(Nc3ccccc3)n[n+]2-c2ccccc2)cc1Br`, the Potency was inconclusive: 4.11 µM [activator, partial curve, poor fit].
In the case of `COc1cc(C(=O)NC(=S)NC(C)C)cc(OC)c1OC`, the “activity change, negative = inhibition” value is reported as inactive: -0.741%.
With `O=C(CSc1nnc(C2CCCCC2)n1-c1ccccc1)NCc1ccco1` the Potency was inconclusive: 29.1 µM [falling, single point].
In the case of `CCOC(=O)c1sc(=NC(=O)c2ccc(Cl)s2)n(C)c1C`, the Potency is reported as inconclusive: 5.8 µM [activator, full curve].
In the case of `Cc1[nH]n(-c2ccccc2)c(=O)c1C=Nc1ccc(S(=O)(=O)NC(N)=O)cc1`, the Potency is reported as inconclusive: 0.0291 µM [activator, full curve, poor fit].
In the case of `Cc1ccc(COc2ccc(-c3nnco3)cc2)cc1`, the Potency is reported as inconclusive: 4.11 µM [activator, full curve].
In the case of `O=C(Nc1ccc(Cl)cc1)c1ccc2c(=O)n3c(nc2c1)CCCCC3`, the Potency is reported as inconclusive: 29.1 µM [falling, single point].
For `Cc1ccc(NS(=O)(=O)c2ccc(NC(=O)C3CCCO3)cc2)cc1` (configuration not stated), the Potency was inconclusive: 25.9 µM [falling, single point].
In the case of `CCOC(=O)c1c(N)sc(C(=O)Nc2ccc3c(c2)OCO3)c1C`, the Potency is reported as inconclusive: 0.103 µM [activator, full curve, poor fit].
With `Clc1ccc(-c2nc3ccncc3[nH]2)cc1` the Potency was inconclusive: 4.11 µM [activator, partial curve].
With `COc1ccc(S(=O)(=O)NCc2ccncc2)cc1NC(=O)c1ccccc1F` the Potency was inconclusive: 4.61 µM [falling, full curve].
With `COc1ccc(NC(=O)Nc2ccc(OCc3ccccc3)cc2)cn1` the Potency was inconclusive: 20.6 µM [falling, single point].
In the case of `CCc1ccc(OCc2ccc(C(=O)OC)o2)cc1`, the Potency is reported as inconclusive: 2.31 µM [activator, full curve].
In the case of `CC(C)CC(=O)OC1C(N2CCOCC2)c2c(ccc(/C=C/C(=O)N3CCOCC3)c2O)OC1(C)C` (configuration not stated), the “activity change, negative = inhibition” value is reported as inactive: 0.423%.
In the case of `Cc1cc(NC(=O)c2ccc(C(C)(C)C)cc2)no1`, the Potency is reported as inconclusive: 1.16 µM [activator, full curve].
In the case of `COc1ccc(NC(=O)NN(C(=O)c2ccccc2)C(C)(C)C)cc1`, the Potency is reported as inconclusive: 23.1 µM [activator, partial curve, poor fit].
For `COc1cc(OC)c2ccc(=O)oc2c1C(CCN1CCCC(C)C1)c1ccc2c(c1)OCO2` (configuration not stated), the Potency was “inactive”.
In the case of `COc1ccc(-c2noc(C3CC(=O)N(c4ccc(C)c(F)c4)C3)n2)c(OC)c1` (configuration not stated), the Potency is reported as inconclusive: 29.1 µM [falling, single point].
With `CNC(=S)N1CCN(c2c(F)cc3c(=O)c(C(=O)O)cn(C4CC4)c3c2OC)CC1C` (configuration not stated) the “activity change, negative = inhibition” value was inactive: -8.13%.
For `Cc1cccc(OCCSc2nc3ccccc3n2CCC(=O)O)c1`, the “activity change, negative = inhibition” value was inactive: -22.6%.
For `O=C(NNC(=S)NC(=O)C12CC3CC(CC(C3)C1)C2)c1ccncc1`, the Potency was inconclusive: 18.4 µM [falling, partial curve, poor fit].
For `Cc1ccc(C)c(N2CCN(c3ncccc3[N+](=O)[O-])CC2)c1`, the Potency was inconclusive: 23.1 µM [falling, single point].
For `COc1ccc(NC(=O)C(=O)NCCc2ccccc2)cc1OC`, the “activity change, negative = inhibition” value was inactive: 8.17%.
For `CC(C)CCNC(=O)CN1C(=O)COc2ccc(S(=O)(=O)N3CCOCC3)cc21`, the “activity change, negative = inhibition” value was inactive: 7.71%.
In the case of `CCOC(=O)C1=C(COC(=O)c2ccc([N+](=O)[O-])o2)NC(=O)NC1C` (configuration not stated), the Potency is reported as inconclusive: 8.2 µM [falling, partial curve].
For `CN1/C(=C\C(=O)c2ccco2)C(C)(C)c2ccccc21`, the Potency was inconclusive: 10.3 µM [falling, partial curve, poor fit].
For `CC(C)c1ccc(NC(=O)C2CCCN(S(=O)(=O)c3ccc(Br)s3)C2)cc1` (configuration not stated), the Potency was inconclusive: 29.1 µM [falling, single point].
For `COc1ccc(C(=O)Nc2cccc(/C=C/c3nc4ccccc4c(=O)[nH]3)c2)cc1`, the Potency was inconclusive: 29.1 µM [falling, single point].
For `CCOC(=O)c1cccc(NC(=O)c2cc3c(Cl)nc4ccc(C)cc4c3s2)c1`, the Potency was inconclusive: 0.0291 µM [activator, full curve, poor fit].
In the case of `Cc1ccc(C(=O)N2CCN(S(=O)(=O)N3CCCCC3)CC2)cc1`, the Potency is reported as inconclusive: 20.6 µM [activator, partial curve, poor fit].
In the case of `CCc1cccc(NC(=O)CSC2=NS(=O)(=O)c3ccccc32)c1`, the Potency is reported as inconclusive: 20.6 µM [falling, single point].
In the case of `COc1ccccc1NC(=O)CCc1nnc2ccc(N3CCC4(CC3)OCCO4)nn12`, the Potency is reported as inconclusive: 0.92 µM [falling, partial curve, poor fit].
With `CCc1ccc(NS(=O)(=O)c2ccc3[nH]cc(C(=O)NC4CCCC4)c(=O)c3c2)cc1` the Potency was inconclusive: 29.1 µM [falling, single point].
With `Cc1ccc([N+](=O)[O-])cc1NC(=O)c1ccc(C(C)(C)C)cc1` the Potency was inconclusive: 29.1 µM [falling, single point].
For `O=C(COC(=O)/C=C/c1ccc(S(=O)(=O)N2CCCCCC2)cc1)NCc1ccccc1Cl`, the Potency was inconclusive: 0.058 µM [falling, full curve, poor fit].
In the case of `CC1CCN(c2oc(Cc3cccc4ccccc34)nc2C#N)CC1`, the “activity change, negative = inhibition” value is reported as inactive: -23.5%.
